Measured values reported in patent publication US20080044805A1, “Biopolymer-Dye Complex and Use as a Bioassay” (STC.UNM, priority 2006, published 2008).

Assay: Cyanine dye titration with carboxymethylcellulose (J-aggregate fluorescence)

With CCN1C(=Cc2sc3ccc(Cl)cc3[n+]2CC)Sc2ccc(Cl)cc21.[I-] [cyanine dye of Formula I] as the compound, how does the “optimal cyanine dye concentration for fluorescence emission” value (20 μM and 40 μM CMC) read?
Its value is 40 µM.

And the “limit of detection for cyanine dye” value (estimated, CMC as a scaffold)?
The value was 3 µM.

And the “limit of quantitation for cyanine dye” value (estimated, CMC as a scaffold)?
The value was 5 µM.
